Measured values from the supplement of paper PMC10849652.
The list shows a part of the results.

The chains behind the UniProt entries cited, without tags or fusion partners. Where a name states a change or a piece, a line headed by the entry shows the natural chain unless it says otherwise.
UniProt Q05048: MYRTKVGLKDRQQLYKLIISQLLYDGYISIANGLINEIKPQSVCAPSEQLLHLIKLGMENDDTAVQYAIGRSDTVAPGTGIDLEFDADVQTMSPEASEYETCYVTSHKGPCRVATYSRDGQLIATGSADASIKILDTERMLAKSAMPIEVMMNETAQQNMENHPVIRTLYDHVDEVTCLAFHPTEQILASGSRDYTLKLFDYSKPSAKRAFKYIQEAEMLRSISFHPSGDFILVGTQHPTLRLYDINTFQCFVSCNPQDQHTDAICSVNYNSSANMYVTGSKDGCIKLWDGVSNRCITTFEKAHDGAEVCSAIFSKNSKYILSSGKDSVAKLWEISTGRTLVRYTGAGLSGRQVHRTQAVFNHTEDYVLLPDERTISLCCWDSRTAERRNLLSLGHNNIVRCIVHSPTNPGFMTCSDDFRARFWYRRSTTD
UniProt Q9UHQ9: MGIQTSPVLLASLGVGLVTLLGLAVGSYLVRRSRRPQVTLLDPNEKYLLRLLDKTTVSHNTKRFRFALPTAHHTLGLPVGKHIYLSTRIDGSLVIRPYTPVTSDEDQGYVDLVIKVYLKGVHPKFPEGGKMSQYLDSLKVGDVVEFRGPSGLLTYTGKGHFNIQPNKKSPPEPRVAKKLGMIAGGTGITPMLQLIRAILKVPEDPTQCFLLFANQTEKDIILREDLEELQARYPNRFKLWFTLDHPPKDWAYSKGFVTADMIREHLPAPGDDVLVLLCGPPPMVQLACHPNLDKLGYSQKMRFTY
UniProt Q96F07, whole entry, looked up: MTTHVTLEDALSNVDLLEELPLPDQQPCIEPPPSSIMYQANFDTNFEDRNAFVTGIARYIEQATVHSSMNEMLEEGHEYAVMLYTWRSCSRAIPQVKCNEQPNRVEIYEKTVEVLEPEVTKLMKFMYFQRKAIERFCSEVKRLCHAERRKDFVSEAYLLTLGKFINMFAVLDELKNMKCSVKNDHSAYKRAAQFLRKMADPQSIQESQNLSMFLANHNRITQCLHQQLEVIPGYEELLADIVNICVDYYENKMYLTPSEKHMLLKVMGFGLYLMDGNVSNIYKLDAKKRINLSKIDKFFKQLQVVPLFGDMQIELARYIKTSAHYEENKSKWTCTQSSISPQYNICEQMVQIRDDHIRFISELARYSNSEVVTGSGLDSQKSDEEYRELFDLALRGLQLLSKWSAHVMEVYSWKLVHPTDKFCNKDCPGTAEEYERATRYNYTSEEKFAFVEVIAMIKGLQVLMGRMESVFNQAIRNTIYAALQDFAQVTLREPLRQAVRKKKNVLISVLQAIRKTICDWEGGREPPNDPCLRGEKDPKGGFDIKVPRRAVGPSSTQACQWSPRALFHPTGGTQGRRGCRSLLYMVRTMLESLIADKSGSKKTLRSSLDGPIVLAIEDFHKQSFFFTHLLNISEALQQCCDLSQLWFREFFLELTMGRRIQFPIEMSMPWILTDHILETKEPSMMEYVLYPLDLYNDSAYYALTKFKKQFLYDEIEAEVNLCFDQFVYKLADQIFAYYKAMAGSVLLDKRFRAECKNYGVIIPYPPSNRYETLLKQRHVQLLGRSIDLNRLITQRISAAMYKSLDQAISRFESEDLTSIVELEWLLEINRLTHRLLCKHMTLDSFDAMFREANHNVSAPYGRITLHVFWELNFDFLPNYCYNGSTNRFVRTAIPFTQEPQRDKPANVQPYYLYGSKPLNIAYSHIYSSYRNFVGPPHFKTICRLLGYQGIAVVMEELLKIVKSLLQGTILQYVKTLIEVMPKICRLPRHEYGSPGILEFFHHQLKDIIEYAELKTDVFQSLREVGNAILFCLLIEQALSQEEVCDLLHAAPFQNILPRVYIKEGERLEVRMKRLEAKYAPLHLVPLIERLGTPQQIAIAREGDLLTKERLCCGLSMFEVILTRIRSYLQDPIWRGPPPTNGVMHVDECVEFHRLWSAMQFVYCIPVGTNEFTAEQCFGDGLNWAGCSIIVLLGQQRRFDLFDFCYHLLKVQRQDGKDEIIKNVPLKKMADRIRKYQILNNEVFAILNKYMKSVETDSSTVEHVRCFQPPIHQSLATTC
UniProt Q9H467: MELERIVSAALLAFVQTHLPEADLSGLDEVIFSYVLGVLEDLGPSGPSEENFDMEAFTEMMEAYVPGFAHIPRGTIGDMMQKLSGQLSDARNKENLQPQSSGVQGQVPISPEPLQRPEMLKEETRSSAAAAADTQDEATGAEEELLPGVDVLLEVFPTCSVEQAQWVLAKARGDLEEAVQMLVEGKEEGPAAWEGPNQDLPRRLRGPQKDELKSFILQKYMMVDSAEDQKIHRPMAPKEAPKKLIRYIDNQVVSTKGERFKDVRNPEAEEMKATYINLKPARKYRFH
UniProt Q66K64, whole entry, looked up: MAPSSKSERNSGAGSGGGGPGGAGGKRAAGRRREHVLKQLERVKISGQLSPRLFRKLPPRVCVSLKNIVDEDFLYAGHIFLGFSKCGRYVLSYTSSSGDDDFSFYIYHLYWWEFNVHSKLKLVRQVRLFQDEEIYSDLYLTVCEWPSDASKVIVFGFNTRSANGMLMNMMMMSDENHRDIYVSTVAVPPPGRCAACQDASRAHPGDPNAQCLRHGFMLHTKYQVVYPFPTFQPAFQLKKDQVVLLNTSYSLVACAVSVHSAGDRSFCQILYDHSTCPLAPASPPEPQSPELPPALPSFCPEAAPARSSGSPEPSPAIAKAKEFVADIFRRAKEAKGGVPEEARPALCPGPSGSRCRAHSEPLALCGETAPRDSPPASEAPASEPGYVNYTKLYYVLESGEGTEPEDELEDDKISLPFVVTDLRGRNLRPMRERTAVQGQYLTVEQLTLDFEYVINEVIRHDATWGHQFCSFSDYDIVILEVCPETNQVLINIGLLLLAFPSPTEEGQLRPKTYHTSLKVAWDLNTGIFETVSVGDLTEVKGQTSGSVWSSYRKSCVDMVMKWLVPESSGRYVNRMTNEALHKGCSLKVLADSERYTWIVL
UniProt Q12996: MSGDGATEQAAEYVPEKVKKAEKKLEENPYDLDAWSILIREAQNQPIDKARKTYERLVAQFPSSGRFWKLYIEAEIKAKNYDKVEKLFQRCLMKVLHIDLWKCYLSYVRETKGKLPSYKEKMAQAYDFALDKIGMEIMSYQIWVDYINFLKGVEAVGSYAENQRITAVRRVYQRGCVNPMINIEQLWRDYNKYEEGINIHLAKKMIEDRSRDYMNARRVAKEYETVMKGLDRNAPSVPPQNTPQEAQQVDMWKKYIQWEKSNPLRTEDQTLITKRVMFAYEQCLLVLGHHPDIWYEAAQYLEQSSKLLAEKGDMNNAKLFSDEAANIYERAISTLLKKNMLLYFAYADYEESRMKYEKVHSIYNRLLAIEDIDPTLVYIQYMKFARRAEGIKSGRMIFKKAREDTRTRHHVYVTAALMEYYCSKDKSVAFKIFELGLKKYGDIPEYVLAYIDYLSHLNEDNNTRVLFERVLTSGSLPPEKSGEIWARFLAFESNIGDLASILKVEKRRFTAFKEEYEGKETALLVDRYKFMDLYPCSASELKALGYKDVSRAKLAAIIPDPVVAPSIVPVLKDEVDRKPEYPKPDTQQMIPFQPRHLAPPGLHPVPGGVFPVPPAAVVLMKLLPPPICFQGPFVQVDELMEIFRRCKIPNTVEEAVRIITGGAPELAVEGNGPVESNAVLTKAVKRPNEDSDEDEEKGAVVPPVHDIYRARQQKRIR
UniProt O75935, whole entry, looked up: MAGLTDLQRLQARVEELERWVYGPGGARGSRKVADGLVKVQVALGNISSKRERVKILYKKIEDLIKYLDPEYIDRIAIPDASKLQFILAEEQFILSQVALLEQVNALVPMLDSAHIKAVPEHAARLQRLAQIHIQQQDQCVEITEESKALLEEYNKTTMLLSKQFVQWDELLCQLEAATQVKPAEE
UniProt Q9UK59: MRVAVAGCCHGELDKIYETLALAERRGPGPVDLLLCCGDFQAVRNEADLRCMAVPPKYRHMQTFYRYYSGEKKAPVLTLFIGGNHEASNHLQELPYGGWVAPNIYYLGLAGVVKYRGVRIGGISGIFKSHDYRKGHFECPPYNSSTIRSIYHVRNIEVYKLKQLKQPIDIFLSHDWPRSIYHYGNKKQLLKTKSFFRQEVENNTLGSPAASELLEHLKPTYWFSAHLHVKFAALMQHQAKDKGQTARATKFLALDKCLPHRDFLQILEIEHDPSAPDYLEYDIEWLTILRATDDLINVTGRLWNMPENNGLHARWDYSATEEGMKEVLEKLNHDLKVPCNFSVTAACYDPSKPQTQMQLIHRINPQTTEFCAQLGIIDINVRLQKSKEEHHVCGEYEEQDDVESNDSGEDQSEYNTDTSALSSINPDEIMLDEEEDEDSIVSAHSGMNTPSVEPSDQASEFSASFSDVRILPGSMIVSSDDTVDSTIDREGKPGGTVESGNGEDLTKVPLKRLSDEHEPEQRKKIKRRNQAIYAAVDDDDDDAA
UniProt P08574: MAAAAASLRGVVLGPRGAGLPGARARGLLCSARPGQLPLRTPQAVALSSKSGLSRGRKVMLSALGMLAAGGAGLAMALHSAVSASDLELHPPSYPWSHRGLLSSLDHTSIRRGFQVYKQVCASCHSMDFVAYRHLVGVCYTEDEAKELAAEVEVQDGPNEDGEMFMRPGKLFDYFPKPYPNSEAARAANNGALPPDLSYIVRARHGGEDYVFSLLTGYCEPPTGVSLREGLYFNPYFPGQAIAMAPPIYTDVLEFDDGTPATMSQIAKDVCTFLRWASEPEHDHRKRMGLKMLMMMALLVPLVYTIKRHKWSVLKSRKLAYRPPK
UniProt Q01459: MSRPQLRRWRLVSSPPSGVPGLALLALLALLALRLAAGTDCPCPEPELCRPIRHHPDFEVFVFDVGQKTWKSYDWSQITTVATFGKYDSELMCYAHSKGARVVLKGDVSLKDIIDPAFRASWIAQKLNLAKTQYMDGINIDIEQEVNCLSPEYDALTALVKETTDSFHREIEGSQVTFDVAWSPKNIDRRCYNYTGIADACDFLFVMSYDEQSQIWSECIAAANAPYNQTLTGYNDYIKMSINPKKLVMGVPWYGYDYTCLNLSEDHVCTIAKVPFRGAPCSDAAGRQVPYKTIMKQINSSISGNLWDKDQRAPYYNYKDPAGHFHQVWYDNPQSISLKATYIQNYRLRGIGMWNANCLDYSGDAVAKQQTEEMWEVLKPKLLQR
UniProt Q5QP82: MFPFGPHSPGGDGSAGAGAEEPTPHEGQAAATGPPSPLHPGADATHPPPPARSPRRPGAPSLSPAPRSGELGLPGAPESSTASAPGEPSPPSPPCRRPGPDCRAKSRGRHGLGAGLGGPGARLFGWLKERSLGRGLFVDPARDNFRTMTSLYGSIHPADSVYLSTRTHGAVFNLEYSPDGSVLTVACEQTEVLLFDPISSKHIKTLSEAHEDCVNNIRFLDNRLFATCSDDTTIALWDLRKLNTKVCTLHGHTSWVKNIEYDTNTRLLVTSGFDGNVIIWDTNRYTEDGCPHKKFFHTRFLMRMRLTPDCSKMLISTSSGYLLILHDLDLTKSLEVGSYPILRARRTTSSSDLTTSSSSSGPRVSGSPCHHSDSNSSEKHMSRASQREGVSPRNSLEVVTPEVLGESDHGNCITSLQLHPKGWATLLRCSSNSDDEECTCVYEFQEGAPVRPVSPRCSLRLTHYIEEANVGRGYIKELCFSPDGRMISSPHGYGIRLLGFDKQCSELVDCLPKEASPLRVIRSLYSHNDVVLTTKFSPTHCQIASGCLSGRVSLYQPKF
UniProt Q14247: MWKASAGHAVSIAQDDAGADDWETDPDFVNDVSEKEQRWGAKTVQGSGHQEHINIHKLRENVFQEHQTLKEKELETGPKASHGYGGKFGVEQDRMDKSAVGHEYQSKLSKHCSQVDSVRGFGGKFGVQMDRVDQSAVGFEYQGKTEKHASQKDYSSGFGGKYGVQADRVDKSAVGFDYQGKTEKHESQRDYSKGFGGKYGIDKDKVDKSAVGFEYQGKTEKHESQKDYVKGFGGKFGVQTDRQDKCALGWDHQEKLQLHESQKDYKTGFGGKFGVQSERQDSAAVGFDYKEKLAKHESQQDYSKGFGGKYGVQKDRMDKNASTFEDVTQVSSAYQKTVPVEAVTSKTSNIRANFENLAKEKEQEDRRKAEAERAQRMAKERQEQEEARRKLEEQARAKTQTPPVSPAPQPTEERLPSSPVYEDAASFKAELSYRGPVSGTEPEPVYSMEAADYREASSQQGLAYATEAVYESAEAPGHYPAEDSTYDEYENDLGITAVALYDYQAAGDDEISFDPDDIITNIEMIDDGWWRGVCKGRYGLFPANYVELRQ
UniProt O60888: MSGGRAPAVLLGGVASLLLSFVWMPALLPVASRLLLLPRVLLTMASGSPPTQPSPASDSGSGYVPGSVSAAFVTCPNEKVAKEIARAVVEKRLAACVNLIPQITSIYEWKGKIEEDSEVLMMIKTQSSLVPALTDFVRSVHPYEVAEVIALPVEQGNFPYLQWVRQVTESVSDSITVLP

Each target was assayed with CC1=NC(=CC=C1)C2=C(N=C(N2)C(C)(C)C)C3=CC4=NC=CN=C4C=C3 (assay: log2 fold change, soluble protein after heating vs DMSO (PISA); higher = thermal stabilisation; K562 cells, 10 uM, 30 min; active = over 0.2 and 3.5 SD of the protein, either way, in both replicates (recomputed)).
Summary of the method: (§1)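 Soluble protein was defined as the supernatant after 21,000xg for 90 min. It came from K562 cells at 2×10^6 cells/mL given 10 μM compound for 30 min, heated in aliquots for 3 min across 48°C-58°C, pooled, and extracted in PBS with 0.5% NP-40 at 4°C, and was quantified by TMTpro 16plex LC-MS/MS with equalised channel sums. Thermal stability against control samples, from duplicates, is reported as log2 fold change.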

Target | log2 fold change
CSTF1 (UniProt Q05048) | inactive: 0.004
CYB5R1 (UniProt Q9UHQ9) | inactive: 0.008
CTBP1 (UniProt Q13363) | inactive: 0.008
CYFIP2 (UniProt Q96F07) | inactive: 0.029
CUEDC2 (UniProt Q9H467) | inactive: -0.153
CXorf56 (UniProt Q9H5V9) | inactive: -0.006
CSPP1 (UniProt Q1MSJ5) | inactive: -0.02
DCAF15 (UniProt Q66K64) | inactive: 0.023
CSTF3 (UniProt Q12996) | inactive: 0.006
CYFIP1 (UniProt Q7L576) | inactive: 0.035
DCTN3 (UniProt O75935) | inactive: 0.056
DBR1 (UniProt Q9UK59) | inactive: 0.049
CYC1 (UniProt P08574) | inactive: 0.013
CTU2 (UniProt Q2VPK5) | inactive: 0.104
CTBS (UniProt Q01459) | inactive: -0.065
DCAF10 (UniProt Q5QP82) | inactive: -0.009
CTTN (UniProt Q14247) | inactive: 0.017

What follows are targets tested with CCCCN(Cc1ccc(C(=O)NO)cc1)C(=O)Nc1ccccc1 [Nexturastat A] in the same assay as above.
Summary of the method: as §1

Target | log2 fold change
CT47A1 (UniProt Q5JQC4) | inactive: 0.012
CWC27 (UniProt Q6UX04) | inactive: -0.029
CYB5B, A0A499FJ32 | inactive: -0.043
CUX1 isoform 2 (UniProt Q13948) | inactive: 0.051
CYB5R4 (UniProt Q7L1T6) | inactive: -0.047
CYHR1 (UniProt E9PJD7) | inactive: -0.098
DCAF7 (UniProt P61962) | inactive: 0.028
CT45A10 (UniProt P0DMU9) | inactive: 0.256
CTPS1 (UniProt P17812) | inactive: -0.08
CTH (UniProt P32929) | inactive: -0.046
CTNNA2 (UniProt P26232) | inactive: 0.016
CUL1 (UniProt Q13616) | inactive: -0.059
CTSL (UniProt P07711) | inactive: 0.085
CTNNB1 (UniProt P35222) | inactive: 0.172
CYB5R3 isoform 3 (UniProt P00387) | inactive: -0.047
CUTA isoform 2 (UniProt O60888) | inactive: 0.169
CTIF isoform 2 (UniProt O43310) | inactive: -0.038
CUL3 (UniProt Q13618) | inactive: -0.062
CUL2 isoform 2 (UniProt Q13617) | inactive: -0.048
CST3 (UniProt P01034) | inactive: -0.134

Target | log2 fold change
DAG1 (UniProt Q14118) | inactive: -0.005
D2HGDH (UniProt Q8N465) | inactive: -0.127
CTSV (UniProt O60911) | inactive: -0.043
CSTF1 (UniProt Q05048) | inactive: -0.169
CYB5R1 (UniProt Q9UHQ9) | inactive: -0.037
CTBP1 (UniProt Q13363) | inactive: -0.046
CYFIP2 (UniProt Q96F07) | inactive: -0.058
CUEDC2 (UniProt Q9H467) | inactive: -0.019
CXorf56 (UniProt Q9H5V9) | inactive: 0.002
CSPP1 (UniProt Q1MSJ5) | inactive: 0.014
DCAF15 (UniProt Q66K64) | inactive: 0.069
CSTF3 (UniProt Q12996) | inactive: -0.072
CYFIP1 (UniProt Q7L576) | inactive: -0.043
DCTN3 (UniProt O75935) | inactive: -0.029
DBR1 (UniProt Q9UK59) | inactive: -0.007
CYC1 (UniProt P08574) | inactive: -0.087
CTU2 (UniProt Q2VPK5) | inactive: -0.085
CTBS (UniProt Q01459) | inactive: 0.043
DCAF10 (UniProt Q5QP82) | inactive: 0.012
CTTN (UniProt Q14247) | inactive: -0.095

These targets were tested with CCCS(=O)(=O)Nc1ccc(F)c(C(=O)c2c[nH]c3ncc(-c4ccc(Cl)cc4)cc23)c1F [vemurafenib] in the same assay as above.
Summary of the method: as §1

Target | log2 fold change
CT47A1 (UniProt Q5JQC4) | inactive: 0.025
CWC27 (UniProt Q6UX04) | inactive: 0.128
CYB5B, A0A499FJ32 | inactive: 0.027
CUX1 isoform 2 (UniProt Q13948) | inactive: 0.074
CYB5R4 (UniProt Q7L1T6) | inactive: 0.04
CYHR1 (UniProt E9PJD7) | inactive: -0.063
DCAF7 (UniProt P61962) | inactive: -0.018
CT45A10 (UniProt P0DMU9) | inactive: 0.04
CTPS1 (UniProt P17812) | inactive: -0.025
CTH (UniProt P32929) | inactive: 0.007
CTNNA2 (UniProt P26232) | inactive: -0.001
CUL1 (UniProt Q13616) | inactive: 0.004
CTSL (UniProt P07711) | inactive: -0.023
CTNNB1 (UniProt P35222) | inactive: -0.22
CYB5R3 isoform 3 (UniProt P00387) | inactive: -0.038
CUTA isoform 2 (UniProt O60888) | inactive: 0
CTIF isoform 2 (UniProt O43310) | inactive: 0.063
CUL3 (UniProt Q13618) | inactive: 0.01
CUL2 isoform 2 (UniProt Q13617) | inactive: 0.011
CST3 (UniProt P01034) | inactive: -0.057

Target | log2 fold change
DAG1 (UniProt Q14118) | inactive: 0.005
D2HGDH (UniProt Q8N465) | inactive: -0.011
CTSV (UniProt O60911) | inactive: -0.021
CSTF1 (UniProt Q05048) | inactive: -0.026
CYB5R1 (UniProt Q9UHQ9) | inactive: -0.03
CTBP1 (UniProt Q13363) | inactive: 0.005
CYFIP2 (UniProt Q96F07) | inactive: 0.04
CUEDC2 (UniProt Q9H467) | inactive: 0.009
CXorf56 (UniProt Q9H5V9) | inactive: -0.015
CSPP1 (UniProt Q1MSJ5) | inactive: -0.024
DCAF15 (UniProt Q66K64) | inactive: 0.114
CSTF3 (UniProt Q12996) | inactive: -0.005
CYFIP1 (UniProt Q7L576) | inactive: 0.026
DCTN3 (UniProt O75935) | inactive: 0.061
DBR1 (UniProt Q9UK59) | inactive: 0.024
CYC1 (UniProt P08574) | inactive: -0.009
CTU2 (UniProt Q2VPK5) | inactive: -0.02
CTBS (UniProt Q01459) | inactive: 0.093
DCAF10 (UniProt Q5QP82) | inactive: -0.044
CTTN (UniProt Q14247) | inactive: -0.023
